Results reported in US20120237937A1, “METHODS TO DETECT CANCER IN ANIMALS” (UNIVERSITY OF LOUISVILLE RESEARCH FOUNDATION, INC., priority 2009, published 2012).
Some entries share one result that the patent states for a list of compounds. For at least one compound, name, drawing or mass did not settle the structure.

Assay: NMR 13C-isotopomer profiling of TCA extracts of paired non-cancerous and cancerous lung tissues
Details: human lung tissues, surrogates of pyruvate (Ala, lactate) and OAA (Asp)
Description: Lung cancer patients were recruited based on the criteria of surgical eligibility and no history of diabetes. Each patient was consented in accordance with the U.S. HIPAA regulations. The following patient protocol was approved by the Internal Review Board at the University of Louisville. Ten grams uniformly ^13C labeled glucose ([U-^13C]-Glc or ^13C6-Glc or ^13C6-Glucose) in sterile saline solution were infused i.v. over a 30 min time period into each patient in the pre-op room approximately 3 or 12 hr prior to resection. Whole blood samples were collected into a vacutainer containing the anticoagulant K3EDTA or K3-EDTA before and after [U-^13C]-Glc infusion as well as after the surgery. Additional blood samples were collected 3 and 12 hr after the [U-^13C]-Glc infusion for the 12 hr treatment cases. […] The blood samples were placed on ice immediately after collection and centrifuged at 4° C. at 3,500×g for 15 min to recover the plasma fraction. […]
All timings from first incision to cutting arteries and veins to the lung were recorded so that the period of ischemia could be determined immediately after tissue resection, excess blood was blotted from the tissue, and small pieces of non-cancerous and tumor tissue were cut by the surgeon and freeze-clamped in liquid N2 within 5 minutes of removal from the chest cavity. […]

CC(O)C(=O)O (stereo not shown) [lactate]
% enrichment: ≤ 15%
